Results are given in words; binding and its absence hold for the method and conditions named. In cells and extracts the contact can be indirect. Some results given as binding are weak or reduced against the parent protein; the word gives no strength. Tags and fused reporters may be left off the sequences shown.
T1: ProtA-TEV-tagged Syo1 K74E/K76E/R118E (S. cerevisiae) (UniProt Q07395)
T1 sequence: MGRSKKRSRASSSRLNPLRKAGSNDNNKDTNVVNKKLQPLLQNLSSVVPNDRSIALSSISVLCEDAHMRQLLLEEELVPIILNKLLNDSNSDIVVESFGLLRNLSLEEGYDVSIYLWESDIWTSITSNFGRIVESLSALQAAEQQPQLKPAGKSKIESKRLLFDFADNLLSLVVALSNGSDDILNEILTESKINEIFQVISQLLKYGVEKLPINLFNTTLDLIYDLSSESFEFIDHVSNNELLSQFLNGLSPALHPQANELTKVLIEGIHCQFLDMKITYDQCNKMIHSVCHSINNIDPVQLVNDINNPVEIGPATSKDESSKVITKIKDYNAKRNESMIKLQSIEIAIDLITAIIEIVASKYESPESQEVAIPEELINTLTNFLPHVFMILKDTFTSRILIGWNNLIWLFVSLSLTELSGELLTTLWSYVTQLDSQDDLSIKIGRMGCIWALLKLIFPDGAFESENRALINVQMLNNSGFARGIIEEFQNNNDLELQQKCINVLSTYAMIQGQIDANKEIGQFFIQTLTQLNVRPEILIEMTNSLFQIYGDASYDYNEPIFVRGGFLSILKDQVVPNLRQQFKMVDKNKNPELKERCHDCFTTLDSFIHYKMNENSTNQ

T2: ProtA-TEV-tagged scSyo1 (S. cerevisiae) (UniProt Q07395)
T2 sequence: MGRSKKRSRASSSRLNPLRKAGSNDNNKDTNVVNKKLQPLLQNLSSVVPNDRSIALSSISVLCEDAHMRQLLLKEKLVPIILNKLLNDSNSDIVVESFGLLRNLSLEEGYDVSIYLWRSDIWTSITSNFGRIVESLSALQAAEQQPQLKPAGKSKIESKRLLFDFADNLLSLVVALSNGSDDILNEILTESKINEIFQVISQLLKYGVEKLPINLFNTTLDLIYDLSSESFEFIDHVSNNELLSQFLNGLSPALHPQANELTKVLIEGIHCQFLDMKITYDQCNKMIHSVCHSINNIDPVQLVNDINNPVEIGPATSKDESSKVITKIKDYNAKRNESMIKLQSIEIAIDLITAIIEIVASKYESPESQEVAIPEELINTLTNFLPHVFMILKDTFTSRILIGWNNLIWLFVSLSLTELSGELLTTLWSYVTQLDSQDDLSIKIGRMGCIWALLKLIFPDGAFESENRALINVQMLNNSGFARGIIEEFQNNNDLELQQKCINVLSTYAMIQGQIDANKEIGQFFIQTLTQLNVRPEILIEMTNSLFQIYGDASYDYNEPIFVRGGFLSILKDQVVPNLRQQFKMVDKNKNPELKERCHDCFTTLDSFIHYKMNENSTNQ


How the values were obtained:
[1] = biological target: T1, ProtA-TEV-tagged Syo1 K74E/K76E/R118E (S. cerevisiae); experiment: co-IP; split-tag affinity purification of overexpressed ProtA-TEV-tagged Syo1 or Syo1-AB with FLAG-tagged uL18 or uL18 G169S from yeast; final eluate by SDS-PAGE, Coomassie
[2] = biological target: T2, ProtA-TEV-tagged scSyo1 (S. cerevisiae); experiment: as above

| Binder | binding [1] | binding [2] |
| --- | --- | --- |
| FLAG-tagged scuL18 (protein, UniProt P26321 1-297) MAFQKDAKSSAYSSRFQTPFRRRREGKTDYYQRKRLVTQHKAKYNTPKYRLVVRFTNKDIICQIISSTITGDVVLAAAYSHELPRYGITHGLTNWAAAYATGLLIARRTLQKLGLDETYKGVEEVEGEYELTEAVEDGPRPFKVFLDIGLQRTTTGARVFGALKGASDGGLYVPHSENRFPGWDFETEEIDPELLRSYIFGGHVSQYMEELADDDEERFSELFKGYLADDIDADSLEDIYTSAHEAIRADPAFKPTEKKFTKEQYAAESKKYRQTKLSKEERAARVAAKIAALAGQQ | binds | binds |
| FLAG-tagged scuL18 G169S (protein, UniProt P26321 1-297) MAFQKDAKSSAYSSRFQTPFRRRREGKTDYYQRKRLVTQHKAKYNTPKYRLVVRFTNKDIICQIISSTITGDVVLAAAYSHELPRYGITHGLTNWAAAYATGLLIARRTLQKLGLDETYKGVEEVEGEYELTEAVEDGPRPFKVFLDIGLQRTTTGARVFGALKGASDSGLYVPHSENRFPGWDFETEEIDPELLRSYIFGGHVSQYMEELADDDEERFSELFKGYLADDIDADSLEDIYTSAHEAIRADPAFKPTEKKFTKEQYAAESKKYRQTKLSKEERAARVAAKIAALAGQQ | binds | binds |
